Values quoted from earlier work as cited in patent US20050163873A1, “Methods and formulations for treating glaucoma” (priority 2004, published 2005).
“Also recorded” adds a separate entry of the source. For at least one compound, name, drawing or mass did not settle the structure.

Columns and labels:
retina [1] = conditions: intraperitoneal; ischemia induced by elevated intraocular pressure
retina [2] = conditions: dietary supplementation
retina [3] = conditions: in vivo

Row | Structure (SMILES) | protection of the retina against transient retinal ischemia (retina [1]) | retinal degeneration caused by N-methyl-N-nitrosourea (retina [2]) | acute light-induced retinal toxicity (retina [3]) | apoptosis (RGC tissue culture) | number of regenerating neurites (RGC tissue culture)
1 | CC/C=C\C/C=C\C/C=C\C/C=C\C/C=C\C/C=C\CCC(=O)O [DHA, docosahexaenoic acid] | effective; also recorded: protected | protected | protective effect |  | 
2 | C[N+](C)(C)CCOP(=O)(O)OP(=O)([O-])OC[C@H]1O[C@@H](n2ccc(N)nc2=O)[C@H](O)[C@@H]1O [citicoline, Citicoline] |  |  |  | reduced | increased
